Source: paper PMC6133972
These are yes or no findings as the source states them, for the method shown. In cells and extracts the contact can be indirect. Binding calls can cover weak binding; strength is not graded here. Tags and fused reporters may be left off the sequences shown.

Protein sequences, listed by entry. Tags and fused reporters are not part of them. Lines headed by an entry give the natural chain unless they say otherwise; changes in a name come on top.
UniProt P25445: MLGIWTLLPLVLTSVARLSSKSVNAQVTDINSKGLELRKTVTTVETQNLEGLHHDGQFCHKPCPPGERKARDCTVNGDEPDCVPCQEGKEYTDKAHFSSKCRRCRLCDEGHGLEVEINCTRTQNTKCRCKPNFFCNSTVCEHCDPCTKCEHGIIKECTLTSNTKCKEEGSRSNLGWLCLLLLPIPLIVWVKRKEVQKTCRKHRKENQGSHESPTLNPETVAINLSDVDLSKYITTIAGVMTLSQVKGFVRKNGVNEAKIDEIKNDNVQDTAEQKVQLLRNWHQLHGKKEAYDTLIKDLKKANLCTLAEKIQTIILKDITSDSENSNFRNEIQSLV

Biological target: T1, human wild-type CERS6 tagged with mycDDK at COOH terminus (human) (UniProt Q6ZMG9)
T1 sequence: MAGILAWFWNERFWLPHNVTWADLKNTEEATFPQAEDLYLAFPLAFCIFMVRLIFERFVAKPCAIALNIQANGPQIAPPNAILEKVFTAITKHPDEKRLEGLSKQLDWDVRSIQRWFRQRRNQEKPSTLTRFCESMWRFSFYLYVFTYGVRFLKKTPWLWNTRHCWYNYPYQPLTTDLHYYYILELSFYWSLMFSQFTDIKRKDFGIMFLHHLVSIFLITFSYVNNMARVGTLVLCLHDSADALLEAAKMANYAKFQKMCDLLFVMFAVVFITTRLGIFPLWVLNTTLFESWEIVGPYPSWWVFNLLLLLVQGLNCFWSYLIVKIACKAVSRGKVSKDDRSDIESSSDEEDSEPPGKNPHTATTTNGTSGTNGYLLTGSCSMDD
Test: co-IP; HEK293FT cells transfected with CERS6-mycDDK and Fas-HA or Fas-HA mutants; 1000 µg lysate on anti-FLAG-M2 affinity gel overnight at 4 °C, elution with 3× FLAG peptide; immunoblot

Substance: FAS-HA with deletion of the death domain only (from UniProt P25445) (receptor)
- binding: binds
